{"sequences": {"note": "Chains of the proteins cited; added tags and fusions are not shown.", "UniProt P52632": "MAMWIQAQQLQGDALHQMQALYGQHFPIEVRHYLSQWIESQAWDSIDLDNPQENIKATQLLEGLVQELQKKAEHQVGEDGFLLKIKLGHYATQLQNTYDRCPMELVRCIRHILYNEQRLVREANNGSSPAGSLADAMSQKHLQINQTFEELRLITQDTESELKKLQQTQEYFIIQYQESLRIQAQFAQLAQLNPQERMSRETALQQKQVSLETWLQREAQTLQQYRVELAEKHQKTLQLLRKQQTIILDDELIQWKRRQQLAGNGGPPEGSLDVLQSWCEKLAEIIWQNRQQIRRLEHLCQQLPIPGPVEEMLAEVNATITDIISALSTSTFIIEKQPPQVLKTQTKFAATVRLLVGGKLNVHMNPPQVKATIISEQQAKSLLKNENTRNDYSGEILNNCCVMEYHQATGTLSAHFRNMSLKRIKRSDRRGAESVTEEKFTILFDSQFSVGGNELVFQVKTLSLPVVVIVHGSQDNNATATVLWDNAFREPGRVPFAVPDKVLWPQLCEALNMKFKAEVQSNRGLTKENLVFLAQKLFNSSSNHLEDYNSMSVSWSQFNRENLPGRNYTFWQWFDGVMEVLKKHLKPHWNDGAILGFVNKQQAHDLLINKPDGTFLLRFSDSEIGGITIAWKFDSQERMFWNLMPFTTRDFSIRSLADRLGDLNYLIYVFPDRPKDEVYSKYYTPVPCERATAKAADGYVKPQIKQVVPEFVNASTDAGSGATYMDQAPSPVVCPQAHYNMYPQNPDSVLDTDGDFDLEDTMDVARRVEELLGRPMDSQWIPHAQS"}, "source": "patent US20090131309A1", "about": "“ICA512 COUPLES INSULIN SECRETION AND GENE EXPRESSION IN BETA-CELLS” (Technische Universität Dresden Medizinizche Fakultät Carl …, priority 2004, published 2009)", "molecules": {"B1": {"name": "in-vitro transcribed and translated [^35S]-labeled PIASy (protein, mouse, UniProt Q9JM05 1-507, looked up)", "chain": "MAAELVEAKNMVMSFRVSDLQMLLGFVGRSKSGLKHELVTRALQLVQFDCSPELFKKIKELYETRYAKKSAEPGPQAPRPLDPLALHSMPRTPLSGPTVDYPVLYGKYLNGLGRLPTKTLKPEVRLVKLPFFNMLDELLKPTELVPQSAEKLQESPCIFALTPRQVEMIRNSRELQPGVKAVQVVLRICYSDTSCPQEDQYPPNIAVKVNHSYCSVPGYYPSNKPGVEPKRPCRPINLTHLMYLSSATNRITVTWGNYGKSYSVALYLVRQLTSSDLLQRLKTIGVKHPELCKALVKEKLRLDPDSEIATTGVRVSLICPLVKMRLSVPCRAETCAHLQCFDAVFYLQMNEKKPTWMCPVCDKPAAYDQLIIDGLLSKILSECEGADEIEFLAEGSWRPIRAEKEPSCSPQGPILVLGTSDANGLAPASSTPGIGSGLSGPGSAGSGAGAAGSLENGKTGADVVDLTLDSSSSSEDEDEDEDDDEDEDEGPRPKRRCPFQKGLVPAC", "modifications": "[35S]-methionine label"}, "B2": {"name": "ICA512-CCF-GFP (other, not shown: large carriers)", "chain": "SQFSDAAQASPSSHSSTPSWCEEPAQANMDISTGHMILAYMEDHLRNRDRLAKEWQALCAYQAEPNTCATAQGEGNIKKNRHPDFLPYDHARIKLKVESSPSRSDYINASPIIEHDPRMPAYIATQGPLSHTIADFWQMVWESGCTVIVMLTPLVEDGVKQCDRYWPDEGASLYHVYEVNLVSEHIWCEDFLVRSFYLKNVQTQETRTLTQFHFLSWPAEGTPASTRPLLDFRRKVNKCYRGRSCPIIVHCSDGAGRTGTYILIDMVLNRMAKGVKEIDIAATLEHVRDQRPGLVRSKDQFEFALTAVAEEVNAILKALPQ"}}, "key": {"ICA512-CCF-GFP (human)": {"biological_target": "T1, ICA512-CCF-GFP (human) (UniProt Q16849)", "T1 sequence": "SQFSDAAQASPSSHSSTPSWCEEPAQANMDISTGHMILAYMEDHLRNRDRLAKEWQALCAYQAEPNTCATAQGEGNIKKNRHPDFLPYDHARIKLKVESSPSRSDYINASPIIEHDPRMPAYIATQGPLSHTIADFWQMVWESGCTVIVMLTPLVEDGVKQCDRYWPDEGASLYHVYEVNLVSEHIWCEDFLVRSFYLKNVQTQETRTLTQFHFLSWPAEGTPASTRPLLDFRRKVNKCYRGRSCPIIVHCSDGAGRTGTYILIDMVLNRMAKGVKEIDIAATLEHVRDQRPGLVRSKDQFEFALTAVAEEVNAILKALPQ", "experiment": "anti-GFP immunoprecipitation from total extracts of hGH-stimulated INS-1 cells, immunoblot (FIG. 24f)"}, "[1]": {"biological_target": "T2, GST-ICA512 (700-979) (human) (UniProt Q16849)", "T2 sequence": "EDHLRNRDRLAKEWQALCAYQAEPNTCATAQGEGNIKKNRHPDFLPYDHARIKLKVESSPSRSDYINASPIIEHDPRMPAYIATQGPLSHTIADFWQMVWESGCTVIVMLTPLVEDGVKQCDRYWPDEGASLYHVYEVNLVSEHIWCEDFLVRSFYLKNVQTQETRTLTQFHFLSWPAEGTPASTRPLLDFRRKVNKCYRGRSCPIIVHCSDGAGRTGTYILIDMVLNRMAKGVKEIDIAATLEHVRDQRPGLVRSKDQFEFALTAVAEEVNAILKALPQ", "experiment": "GST pull-down, SDS-PAGE and autoradiography (FIG. 26a)"}, "PY-STAT5 (rat)": {"biological_target": "PY-STAT5 (rat) (UniProt P52632)", "experiment": "heading of the legend of FIG. 24 (co-immunoprecipitation)"}}, "note": "No constants are given. Whether binding was seen depends on the method and setting. For part of these data: Binding seen in cells or lysates may run through a third protein. Some results given as binding are weak or reduced against the parent protein; the word gives no strength. Sequences can lack the tags named with a protein."}
{"molecule": "PY-STAT5 (from UniProt P52632 1-786)", "values": [{"measurement": "binding", "setting": "ICA512-CCF-GFP (human)", "result": "binds"}]}
{"molecule": "B1", "values": [{"measurement": "binding", "setting": "[1]", "result": "binds"}]}
{"molecule": "B2", "values": [{"measurement": "binding", "setting": "PY-STAT5 (rat)", "result": "binds"}]}
